Experimental findings from publication PMC11467418 are described below.

Test [1] deals with RPM1 CC^1–155 (Arabidopsis thaliana (Col-0)) (UniProt Q39214). Description: split reporter; BiFC with cYFP-HA and nYFP-MYC fusions transiently co-expressed in N. benthamiana leaves; YFP imaged by confocal microscopy.
Test [2] addresses PML5 (Potentially Membrane Localized 5) wild-type, full-length (Arabidopsis thaliana (Col-0)) (UniProt O64790). Put plainly: co-IP; differentially tagged full-length PML5 co-expressed in N. benthamiana; extracted 4 h after induction with 20 µM estradiol; precipitated with anti-RFP beads; blots with anti-RFP and anti-HA.
In test [3] the target is PML5 K74R (P-loop mutant), full-length (Arabidopsis thaliana (Col-0)) (UniProt O64790). Described as above.
Test [4] concerns the target PML5 D362V (MHD mutant), full-length (Arabidopsis thaliana (Col-0)) (UniProt O64790). Described as above.
Test [5] deals with PML5 GCC(2,3,4)A (N-myristoylation and S-acylation (PTM) mutant), full-length (Arabidopsis thaliana (Col-0)) (UniProt O64790). Described as above.

Residue numbers refer to the chain shown, from its start. Names and notes keep the numbering of the source. Results are given in words; binding and its absence hold for the method and conditions named. Binding seen in cells or lysates may run through a third protein. Some binding calls cover weakened binding; strength is not graded here.

B1: RPM1 CC^1–155 (domain or fragment, UniProt Q39214 1-155)
chain: MASATVDFGIGRILSVLENETLLLSGVHGEIDKMKKELLIMKSFLEDTHKHGGNGSTTTTTQLFQTFVANTRDLAYQIEDILDEFGYHIHGYRSCAKIWRAFHFPRYMWARHSIAQKLGMVNVMIQSISDSMKRYYHSENYQAALLPPIDDGDAK
In the case of B1, the binding entry in test [1] is reported as “binds”.

B2: PML5 (Potentially Membrane Localized 5) wild-type, full-length (protein, UniProt O64790 1-762)
chain: MGCCFSVQFSFDDQTLVRIFNFLCGNINRNSFGVEERPTQPTIGQEEMLEKAWNRLMEDRVGIMGLHGMGGVGKTTLFKKIHNKFAKMSSRFDIVIWIVVSKGAKLSKLQEDIAEKLHLCDDLWKNKNESDKATDIHRVLKGKRFVLMLDDIWEKVDLEAIGVPYPSEVNKCKVAFTTRDQKVCGEMGDHKPMQVKCLEPEDAWELFKNKVGDNTLRSDPVIVELAREVAQKCRGLPLALSVIGETMASKTMVQEWEHAIDVLTRSAAEFSNMGNKILPILKYSYDSLGDEHIKSCFLYCALFPEDDEIYNEKLIDYWICEGFIGEDQVIKRARNKGYEMLGTLTLANLLTKVGTEHVVMHDVVREMALWIASDFGKQKENFVVRARVGLHERPEAKDWGAVRRMSLMDNHIEEITCESKCSELTTLFLQSNQLKNLSGEFIRYMQKLVVLDLSYNRDFNKLPEQISGLVSLQFLDLSNTSIKQLPVGLKKLKKLTFLNLAYTVRLCSISGISRLLSLRLLRLLGSKVHGDASVLKELQKLQNLQHLAITLSAELSLNQRLANLISILGIEGFLQKPFDLSFLASMENLSSLWVKNSYFSEIKCRESETASSYLRINPKIPCFTNLSRLGLSKCHSIKDLTWILFAPNLVYLYIEDSREVGEIINKEKATNLTSITPFLKLERLILYNLPKLESIYWSPLHFPRLLIIHVLDCPKLRKLPLNATSVPLVEEFQIRMYPPGLGNELEWEDEDTKNRFVLSIKK
With B2, the binding result in test [2] is given as “binds”.

B3: PML5 K74R (P-loop mutant), full-length (protein, UniProt O64790 1-762)
chain: B2 chain with K74R
For the molecule B3, the binding result in test [3] is given as “binds”.

B4: PML5 D362V (MHD mutant), full-length (protein, UniProt O64790 1-762)
chain: B2 chain with D362V
As to B4, the binding result in test [4] is “binds”.

B5: PML5 GCC(2,3,4)A (N-myristoylation and S-acylation (PTM) mutant), full-length (protein, UniProt O64790 1-762)
chain: B2 chain with G2A, C3A, C4A
Take B5: in test [5], the binding result was “binds”.
